Measurements: publication PMC8842666
No constants are given. Whether binding was seen depends on the method and setting. Binding seen in cells or lysates may run through a third protein. Binding can be weak; no strength is given. Sequences can lack the tags named with a protein.

Biological target: T1, HA-ASB17 (not stated (human or mouse cDNA cloned)) (UniProt Q8WXJ9)
T1 sequence: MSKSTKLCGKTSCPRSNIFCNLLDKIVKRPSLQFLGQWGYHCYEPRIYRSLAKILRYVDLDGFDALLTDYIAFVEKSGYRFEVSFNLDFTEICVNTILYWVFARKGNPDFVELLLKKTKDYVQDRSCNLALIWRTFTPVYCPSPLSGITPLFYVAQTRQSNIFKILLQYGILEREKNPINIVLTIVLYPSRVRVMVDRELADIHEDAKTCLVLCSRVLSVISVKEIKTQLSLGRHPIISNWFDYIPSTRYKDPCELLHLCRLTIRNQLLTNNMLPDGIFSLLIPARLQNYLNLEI
Assay: co-IP; HEK293T co-transfected for 24–36 h; RIPA lysis buffer (50 mM Tris–HCl pH 7.4, 150 mM NaCl, 1% NP-40, 1 mM EDTA, 5% glycerol); anti-Flag or anti-HA antibody at 4°C overnight, protein G agarose; washes with 300 mM NaCl; immunoblot

## ZnF domain of TRAF6 (domain or fragment)
  binding: binds
